PubChem BioAssay AID1259254 – NCATS | 2017

Test: 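Finding genes that stop cells copying their DNA twice in one cycle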 (primary screen)
Cell system: human HCT116 colorectal cancer cells
Reagent: single siRNA against human genes
Duration: 3 days
Detection: 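Imaged Hoechst DNA stain sorts each cell into a cycle phase by DNA amount; per plate, G2 fraction set to 0% for non-targeting and 100% for GMNN siRNA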
Scale: G2 robust z-score and G2 cells, % of GMNN control: higher = more G2 cells, more excess DNA replication; raw share of cells in G2: higher = larger share of cells with G2 DNA content
Rule for the call: 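An siRNA counts as active if its G2 robust z-score lies at least 5 MADs above the screen median; here such calls match roughly 38% of GMNN control or more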
This is an unselected part of about 59,000 reagents. About 1,550 of them (2.6%) count as active. 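G2 share is only a proxy for re-replication; each gene was hit by three separate siRNAs, and active genes were retested.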 The raw values are shown without normalisation. Unmarked entries are inactive. Reagents against one gene are numbered here. The record does not give: the amount of reagent.

gene symbol	reagent	G2 robust z-score	G2 cells, % of GMNN control	raw share of cells in G2 (%)
SIGLEC11 (GeneID 114132)	1	-0.774	-2.48	4.52
SIGLEC11 (GeneID 114132)	2	-1.26	-5.93	2.42
SIGLEC11 (GeneID 114132)	3	5.3 (active)	40.3	19.7
HOXA7 (GeneID 3204)	1	-0.589	-1.18	5.24
HOXA7 (GeneID 3204)	2	-0.813	-2.75	3.19
HOXA7 (GeneID 3204)	3	11.9 (active)	86.6	36.5
SYCE3 (GeneID 644186)	1	-0.422	0.000877	3.15
SYCE3 (GeneID 644186)	2	0.169	4.16	5.22
SYCE3 (GeneID 644186)	3	0.146	3.99	4.71
AHSG (GeneID 197)	1	0.327	5.27	7.77
AHSG (GeneID 197)	2	-0.236	1.31	4.57
AHSG (GeneID 197)	3	-0.435	-0.094	3.49
LRFN5 (GeneID 145581)	1	-0.932	-3.59	2.63
LRFN5 (GeneID 145581)	2	1.77	15.4	7.67
LRFN5 (GeneID 145581)	3	1.69	14.8	8.24
CHAC1 (GeneID 79094)	1	-1.06	-4.51	3.78
CHAC1 (GeneID 79094)	2	0.648	7.53	7.01
CHAC1 (GeneID 79094)	3	10.3 (active)	75.2	31.6
DOCK1 (GeneID 1793)	1	0.643	7.49	7.73
DOCK1 (GeneID 1793)	2	-0.43	-0.0609	4.08
DOCK1 (GeneID 1793)	3	0.342	5.37	6.88
NFYB (GeneID 4801)	1	1.32	12.2	7.23
NFYB (GeneID 4801)	2	-0.335	0.611	5.71
NFYB (GeneID 4801)	3	0.778	8.44	8.63
ECRG4 (GeneID 84417)	1	3.54	27.9	13.4
ECRG4 (GeneID 84417)	2	0.15	4.03	4.65
ECRG4 (GeneID 84417)	3	-1.03	-4.27	1.11
YTHDF2 (GeneID 51441)	1	3.02	24.2	12.3
YTHDF2 (GeneID 51441)	2	-0.802	-2.67	3.15
YTHDF2 (GeneID 51441)	3	-0.185	1.67	3.74
CPA1 (GeneID 1357)	1	-0.00606	2.92	6.58
CPA1 (GeneID 1357)	2	0.295	5.04	6.69
CPA1 (GeneID 1357)	3	-0.435	-0.093	3.88
HUS1 (GeneID 3364)	1	3.49	27.5	18.2
HUS1 (GeneID 3364)	2	0.24	4.66	5.79
HUS1 (GeneID 3364)	3	-0.273	1.04	3.93
ARMH1 (GeneID 339541)	1	1.33	12.3	8.22
ARMH1 (GeneID 339541)	2	5.13 (active)	39.1	20.4
ARMH1 (GeneID 339541)	3	0.185	4.27	5.91
OLIG3 (GeneID 167826)	1	-0.485	-0.444	5.75
OLIG3 (GeneID 167826)	2	-0.689	-1.88	4.01
OLIG3 (GeneID 167826)	3	-0.198	1.58	5.36
ARV1 (GeneID 64801)	1	0.388	5.7	7.06
ARV1 (GeneID 64801)	2	0.0479	3.3	6.09
ARV1 (GeneID 64801)	3	5.65 (active)	42.7	14
NPY5R (GeneID 4889)	1	2.89	23.3	14.2
NPY5R (GeneID 4889)	2	0.0873	3.58	5.77
NPY5R (GeneID 4889)	3	-0.404	0.125	3.31
VIM (GeneID 7431)	1	0.297	5.06	6.14
VIM (GeneID 7431)	2	-0.574	-1.07	3.86
VIM (GeneID 7431)	3	-0.972	-3.87	3.96
PLXNA2 (GeneID 5362)	1	-0.72	-2.1	4.91
PLXNA2 (GeneID 5362)	2	-1.22	-5.64	3.51
PLXNA2 (GeneID 5362)	3	0.509	6.55	6.33
HTR2B (GeneID 3357)	1	-1.24	-5.79	3.77
HTR2B (GeneID 3357)	2	-1.16	-5.19	2.7
HTR2B (GeneID 3357)	3	0.663	7.63	5.61
BBS4 (GeneID 585)	1	1.29	12	8.81
BBS4 (GeneID 585)	2	-0.0401	2.69	6.03
BBS4 (GeneID 585)	3	-0.696	-1.93	3.27
CANT1 (GeneID 124583)	1	0.809	8.66	7.61
CANT1 (GeneID 124583)	2	-0.943	-3.66	3.2
CANT1 (GeneID 124583)	3	-0.964	-3.82	2.35
SLC66A1 (GeneID 54896)	1	-0.769	-2.45	2.73
SLC66A1 (GeneID 54896)	2	-0.576	-1.08	3.81
SLC66A1 (GeneID 54896)	3	-1.02	-4.18	1.81
PDC (GeneID 5132)	1	1.41	12.9	8.98
PDC (GeneID 5132)	2	-0.644	-1.56	3.83
PDC (GeneID 5132)	3	3.38	26.7	11.5

7 consecutive reagents already listed, for reference:
gene symbol	reagent	G2 robust z-score	G2 cells, % of GMNN control	raw share of cells in G2 (%)
ARMH1 (GeneID 339541)	3	0.185	4.27	5.91
OLIG3 (GeneID 167826)	1	-0.485	-0.444	5.75
OLIG3 (GeneID 167826)	2	-0.689	-1.88	4.01
OLIG3 (GeneID 167826)	3	-0.198	1.58	5.36
ARV1 (GeneID 64801)	1	0.388	5.7	7.06
ARV1 (GeneID 64801)	2	0.0479	3.3	6.09
ARV1 (GeneID 64801)	3	5.65 (active)	42.7	14
